# Assay results as given in US20080153872A1, “Bis-(Coumarin) Compounds With Anti-Inflammatory Activity” (priority 2005, published 2008).
# Some of these results come from one statement about several compounds together.
# Columns and labels:
# [1] = tested on: leukotriene B4 production; test: Leukotriene B4 (LTB4) inhibition assay in A23187 stimulated RBL-2H3 cells; format: cell-based, rat; conditions: 10 μM
# 5-lipoxygenase = target: T1, 5-lipoxygenase (Rattus norvegicus, UniProt P12527); test: 5-Lipoxygenase, 5-LO, inhibition by comparison of LTB4 inhibition and Ca2+-induced degranulation inhibition; format: cell-based; conditions: difference between LTB4 inhibition and Ca2+-induced degranulation inhibition 50% or higher at 10 μM
# T1 construct: RBL-2H3 cells have a potent 5-lipoxygenase activity; endogenous in cells; host or cells: RBL-2H3
# T1 sequence (P12527 1-673): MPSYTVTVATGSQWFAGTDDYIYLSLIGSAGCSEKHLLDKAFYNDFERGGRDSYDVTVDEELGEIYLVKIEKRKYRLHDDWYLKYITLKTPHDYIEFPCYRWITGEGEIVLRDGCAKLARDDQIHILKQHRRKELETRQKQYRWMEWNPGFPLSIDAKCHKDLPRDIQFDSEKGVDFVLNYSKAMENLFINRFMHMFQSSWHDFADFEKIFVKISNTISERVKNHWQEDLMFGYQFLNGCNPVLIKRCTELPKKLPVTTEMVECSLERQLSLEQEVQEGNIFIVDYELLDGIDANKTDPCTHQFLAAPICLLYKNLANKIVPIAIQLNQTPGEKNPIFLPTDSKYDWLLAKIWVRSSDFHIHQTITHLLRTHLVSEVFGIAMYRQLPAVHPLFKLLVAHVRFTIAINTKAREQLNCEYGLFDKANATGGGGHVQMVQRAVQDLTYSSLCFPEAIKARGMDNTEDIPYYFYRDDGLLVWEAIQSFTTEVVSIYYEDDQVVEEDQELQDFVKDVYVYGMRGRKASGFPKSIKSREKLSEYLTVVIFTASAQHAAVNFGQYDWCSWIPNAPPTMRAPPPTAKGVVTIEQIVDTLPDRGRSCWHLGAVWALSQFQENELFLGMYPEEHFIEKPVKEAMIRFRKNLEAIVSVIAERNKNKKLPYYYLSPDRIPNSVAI
SMILES,inhibition of LTB4 production [1],5-LO inhibitor by criterion (5-lipoxygenase)
CC(=O)C(c1c(O)c2cc(Cl)c(C)cc2oc1=O)c1c(O)c2cc(Cl)c(C)cc2oc1=O [Example 25],significant inhibition,considered as 5-LO inhibitors
CCc1ccc2oc(=O)c(C(CO)c3c(O)c4cc(CC)ccc4oc3=O)c(O)c2c1 [Example 29],significant inhibition,considered as 5-LO inhibitors
O=c1oc2c(Cl)cc(Cl)cc2c(O)c1C(CO)c1c(O)c2cc(Cl)cc(Cl)c2oc1=O [Example 32],significant inhibition,considered as 5-LO inhibitors
COC(=O)C(c1c(O)c2cc(Br)ccc2oc1=O)c1c(O)c2cc(Br)ccc2oc1=O [Example 47],significant inhibition,considered as 5-LO inhibitors
CCc1ccc2oc(=O)c(C(C(=O)OCCO)c3c(O)c4cc(CC)ccc4oc3=O)c(O)c2c1 [Example 49],significant inhibition,considered as 5-LO inhibitors
O=c1oc2ccccc2c(O)c1C(c1ccc2c(c1)OCCO2)c1c(O)c2ccccc2oc1=O [Example 71],significant inhibition,considered as 5-LO inhibitors
O=c1oc2ccc(Cl)cc2c(O)c1C(c1c(O)c2cc(Cl)ccc2oc1=O)c1ccnc2ccccc12 [Example 98],significant inhibition,considered as 5-LO inhibitors
O=c1oc2ccc(Cl)cc2c(O)c1C(c1ccc2ccccc2n1)c1c(O)c2cc(Cl)ccc2oc1=O [Example 99],significant inhibition,considered as 5-LO inhibitors
O=c1oc2ccc(Cl)cc2c(O)c1C(c1cccc(Cl)c1)c1c(O)c2cc(Cl)ccc2oc1=O [Example 100],significant inhibition,considered as 5-LO inhibitors
O=c1oc2ccc(Cl)cc2c(O)c1C(c1ccc(O)cc1)c1c(O)c2cc(Cl)ccc2oc1=O [Example 112],significant inhibition,considered as 5-LO inhibitors
Cc1cc2oc(=O)c(C(c3ccc(Oc4ccccc4)cc3)c3c(O)c4cc(Cl)c(C)cc4oc3=O)c(O)c2cc1Cl [Example 123],significant inhibition,considered as 5-LO inhibitors
COc1ccc(C(c2c(O)c3cc(Cl)c(C)cc3oc2=O)c2c(O)c3cc(Cl)c(C)cc3oc2=O)cc1Br [Example 128],significant inhibition,considered as 5-LO inhibitors
Cc1cc2oc(=O)c(C(c3cccc(O)c3)c3c(O)c4cc(Cl)c(C)cc4oc3=O)c(O)c2cc1Cl [Example 130],significant inhibition,considered as 5-LO inhibitors
Cc1ccc2c(O)c(C(c3cnc4ccccc4c3)c3c(O)c4ccc(C)cc4oc3=O)c(=O)oc2c1 [Example 155],significant inhibition,considered as 5-LO inhibitors
Cc1ccc2c(O)c(C(c3ccc4ccccc4n3)c3c(O)c4ccc(C)cc4oc3=O)c(=O)oc2c1 [Example 157],significant inhibition,considered as 5-LO inhibitors
Cc1ccc2c(O)c(C(c3ccc(Oc4ccccc4)cc3)c3c(O)c4ccc(C)cc4oc3=O)c(=O)oc2c1 [Example 159],significant inhibition,considered as 5-LO inhibitors
Cc1ccc2c(O)c(C(c3ccc4c(c3)CCO4)c3c(O)c4ccc(C)cc4oc3=O)c(=O)oc2c1 [Example 162],significant inhibition,considered as 5-LO inhibitors
COc1cc(C(c2c(O)c3ccc(C)cc3oc2=O)c2c(O)c3ccc(C)cc3oc2=O)ccc1OCc1ccccc1 [Example 168],significant inhibition,considered as 5-LO inhibitors
Cc1cc2oc(=O)c(C(c3c(O)c4cc(C)c(C)cc4oc3=O)c3ccnc4ccccc34)c(O)c2cc1C [Example 179],significant inhibition,considered as 5-LO inhibitors

SMILES,inhibition of LTB4 production [1],5-LO inhibitor by criterion (5-lipoxygenase)
COc1ccc(C(c2c(O)c3cc(C)c(C)cc3oc2=O)c2c(O)c3cc(C)c(C)cc3oc2=O)cc1Br [Example 186],significant inhibition,considered as 5-LO inhibitors
COc1cc(C(c2c(O)c3cc(C)c(C)cc3oc2=O)c2c(O)c3cc(C)c(C)cc3oc2=O)ccc1OCc1ccccc1 [Example 190],significant inhibition,considered as 5-LO inhibitors
Cc1cc(C)c2oc(=O)c(C(c3ccccn3)c3c(O)c4cc(C)cc(C)c4oc3=O)c(O)c2c1 [Example 210],significant inhibition,considered as 5-LO inhibitors
CCc1ccc2oc(=O)c(C(c3ccc(Oc4ccccc4)cc3)c3c(O)c4cc(CC)ccc4oc3=O)c(O)c2c1 [Example 230],significant inhibition,considered as 5-LO inhibitors
CCc1ccc2oc(=O)c(C(c3ccc(F)c(Br)c3)c3c(O)c4cc(CC)ccc4oc3=O)c(O)c2c1 [Example 231],significant inhibition,considered as 5-LO inhibitors
CCc1ccc2oc(=O)c(C(c3ccncc3)c3c(O)c4cc(CC)ccc4oc3=O)c(O)c2c1 [Example 232],significant inhibition,considered as 5-LO inhibitors
CC(C)OC(=O)C(c1c(O)c2cccc(C(C)C)c2oc1=O)c1c(O)c2cccc(C(C)C)c2oc1=O [Example 293],significant inhibition,considered as 5-LO inhibitors
O=c1oc2ccc(F)cc2c(O)c1C(c1ccc2c(c1)OCO2)c1c(O)c2cc(F)ccc2oc1=O [Example 303],significant inhibition,considered as 5-LO inhibitors
O=c1oc2ccc(F)cc2c(O)c1C(c1ccc2c(c1)CCO2)c1c(O)c2cc(F)ccc2oc1=O [Example 311],significant inhibition,considered as 5-LO inhibitors
O=c1oc2ccc(F)cc2c(O)c1C(c1ccc2c(c1)OCCO2)c1c(O)c2cc(F)ccc2oc1=O [Example 312],significant inhibition,considered as 5-LO inhibitors
O=c1oc2ccc(Br)cc2c(O)c1C(c1ccncc1)c1c(O)c2cc(Br)ccc2oc1=O [Example 332],significant inhibition,considered as 5-LO inhibitors
O=c1oc2ccc(Br)cc2c(O)c1C(c1cccc(O)c1)c1c(O)c2cc(Br)ccc2oc1=O [Example 345],significant inhibition,considered as 5-LO inhibitors
O=c1oc2ccc(Br)cc2c(O)c1C(c1ccc(O)cc1)c1c(O)c2cc(Br)ccc2oc1=O [Example 347],significant inhibition,considered as 5-LO inhibitors
CC(C)c1cccc2c(O)c(C(c3ccc(CO)o3)c3c(O)c4cccc(C(C)C)c4oc3=O)c(=O)oc12 [Example 359],significant inhibition,considered as 5-LO inhibitors
CCc1ccc2oc(=O)c(C(c3c(O)c4cc(CC)ccc4oc3=O)C(C)O)c(O)c2c1 (centres unmarked) [Example 362],significant inhibition,considered as 5-LO inhibitors
CC(C)c1cccc2c(O)c(C(c3c(O)c4cccc(C(C)C)c4oc3=O)C(C)O)c(=O)oc12 (centres unmarked) [Example 364],significant inhibition,considered as 5-LO inhibitors
CC(C)c1cccc2c(O)c(C3COc4c3c(=O)oc3c(C(C)C)cccc43)c(=O)oc12 (centres unmarked) [Example 369],significant inhibition,considered as 5-LO inhibitors
CC(C)c1cccc2c(O)c(C3c4c(c5cccc(C(C)C)c5oc4=O)OC3C)c(=O)oc12 (centres unmarked) [Example 371],significant inhibition,considered as 5-LO inhibitors
